{"source": "patent US20120077705A1", "about": "“Methods for Identifying Autophagy Inducing Compounds” (President and Fellows of Harvard College, priority 2007, published 2012)", "system": "LC3-GFP", "assay": "High-content screening of LC3-GFP fluorescent intensity in H4-LC3 cell line", "assay_type": "cell-based", "note": "The name of at least one read-out is uncertain.", "data": [{"smiles": "COC(=O)C1=C(C)NC(C)=C(C(=O)OCCCN2CCC(c3ccccc3)(c3ccccc3)CC2)C1c1cccc([N+](=O)[O-])c1.Cl", "note": "(stereo not shown) [Niguldipine]", "values": [{"measurement": "Relative fluorescent intensity of LC3-GFP (%)", "value": "777.92 ± 93.57", "unit": "%"}]}]}
